Measured values from US8859727B2, “Bioactive FUS1 peptides and nanoparticle-polypeptide complexes” (Board of Regents, The University of Texas System, priority 2005, dated 2014).
Entries after “also recorded” stand apart in the source; their conditions may differ. Not every detail of the peptide structures is certain; ends, links or a residue may be inferred. Where a SMILES comes first, the peptide text is derived from it. The star is where a group is joined. Stearoyl = CCCCCCCCCCCCCCCCCC(=O)*

Sequences of proteins named here, by UniProt entry; tags and fusion partners are left off.
UniProt P00519, whole entry: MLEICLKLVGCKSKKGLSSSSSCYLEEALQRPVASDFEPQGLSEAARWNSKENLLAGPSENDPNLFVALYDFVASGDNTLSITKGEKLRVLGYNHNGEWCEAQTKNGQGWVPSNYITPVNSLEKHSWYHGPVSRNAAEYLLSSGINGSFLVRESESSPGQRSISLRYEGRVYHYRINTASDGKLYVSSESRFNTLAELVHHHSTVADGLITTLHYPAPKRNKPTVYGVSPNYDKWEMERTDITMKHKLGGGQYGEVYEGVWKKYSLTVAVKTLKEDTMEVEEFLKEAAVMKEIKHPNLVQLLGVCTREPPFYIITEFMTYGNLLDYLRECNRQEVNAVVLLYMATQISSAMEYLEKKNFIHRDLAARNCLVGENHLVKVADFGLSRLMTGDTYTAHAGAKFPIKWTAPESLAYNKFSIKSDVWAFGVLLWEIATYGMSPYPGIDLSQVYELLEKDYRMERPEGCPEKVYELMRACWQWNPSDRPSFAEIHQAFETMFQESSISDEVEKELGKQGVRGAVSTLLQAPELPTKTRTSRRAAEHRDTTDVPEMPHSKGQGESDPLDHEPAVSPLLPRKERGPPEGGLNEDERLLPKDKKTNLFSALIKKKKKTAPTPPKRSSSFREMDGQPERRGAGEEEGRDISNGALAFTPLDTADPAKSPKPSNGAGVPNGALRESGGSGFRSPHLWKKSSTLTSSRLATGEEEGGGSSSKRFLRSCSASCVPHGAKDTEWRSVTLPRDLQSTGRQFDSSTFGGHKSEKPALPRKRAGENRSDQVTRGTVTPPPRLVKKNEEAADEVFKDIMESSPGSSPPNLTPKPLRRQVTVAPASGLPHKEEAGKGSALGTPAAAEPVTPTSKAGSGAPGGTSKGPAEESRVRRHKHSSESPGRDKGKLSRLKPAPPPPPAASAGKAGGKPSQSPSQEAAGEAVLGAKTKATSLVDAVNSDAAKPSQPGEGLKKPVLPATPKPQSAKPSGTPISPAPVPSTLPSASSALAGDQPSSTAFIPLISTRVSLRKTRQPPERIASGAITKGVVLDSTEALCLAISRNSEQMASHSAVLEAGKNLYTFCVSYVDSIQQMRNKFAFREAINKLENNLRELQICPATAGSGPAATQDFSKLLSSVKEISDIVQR

Experiments:
[1] = test system: phosphorylated EGFR, ERK and Akt proteins; test: Western-blot analysis of phosphorylated EGFR, ERK and Akt in Gefitinib-sensitive cells; type: cell-based, human; conditions: alone or in combination with gefitinib, Gefitinib-sensitive NCC827 and H1819 cells
EGFR = EGFR expression by Western-blot analysis; type: cell-based, human; conditions: co-treated with Gefitinib, H322 and H460 cells
[2] = test system: SCLC H69, H128, H146, and N417 cells; test: Growth inhibition and apoptosis in SCLC cells; type: cell-based, human; conditions: 72 h; compared to GFP-nanoparticle or peptide controls
NSCLC A549 cells = test: Tumor cell growth, XTT assay; type: cell-based, human; conditions: compared to mt-FP2, mt-FP5 and NSP
[3] = test system: EGFR, PDGFR, c-Kit, c-Abl, Erk; test: Activities of oncogenic PTKs in NSCLC and SCLC cells; type: cell-based
[4] = test system: Gefitinib-resistant NSCLC H1299, H358, and H460 cells; test: Combination treatment with Gefitinib, tumor cell growth (XTT, isobologram) and apoptosis; type: cell-based, human
[5] = test system: SCLC Gleevec-sensitive H69-S and Gleevec-resistant H69-R cells; test: Combination treatment with Gleevec in SCLC cells; type: cell-based, human; conditions: H69-S 48 h and H69-R 96 h; compared to either treatment alone or NSP / mt-FP controls
SCLC H128 and H146 cells = test: Tumor cell growth and apoptosis in SCLC cells; type: cell-based, human; conditions: compared to mt-FP-treated or untreated controls
c-Abl in A549 cells = test: c-Abl tyrosine kinase activity in treated cells (immunoprecipitation, Tyrosine Kinase Activity Assay kit); type: cell-based, human; conditions: wt-FP 5:M for 6 hr, wt-FUS1 plasmid DNA-DOTAP nanoparticle 10:g for 24 hr
c-abl and c-kit = test: Activities of c-abl and c-kit by immuno-precipitation / immuno-blot in SCLC N417 and H69 cells; type: cell-based, human; conditions: alone or in combination with Gleevec
[6] = test system: gleevec-resistant H69R and N417 cells; test: Combination treatment with gleevec in gleevec-resistant SCLC cells; type: cell-based, human; conditions: compared to either agent alone
c-Abl in H1299 cells = biological target: T1, c-Abl in H1299 cells (Homo sapiens, UniProt P00519); test: c-Abl tyrosine kinase activity in treated cells (immunoprecipitation, Tyrosine Kinase Activity Assay kit); type: cell-based; conditions: 5:M for 6 hr
T1 construct: One mg of protein lysate was used to perform immunoprecipitation (IP) with a mouse anti-c-Abl antibody; endogenous in cells; host or cells: H1299 (human NSCLC)

NSCLC H1299 cells = test: Tumor cell growth, XTT assay; type: cell-based, human; conditions: compared to mt-FP2, mt-FP5 and NSP

CCCCCCCCCCCCCCCCCC(=O)N[C@@H](CCCCN)C(=O)N[C@@H](CC(C)C)C(=O)N[C@@H](CCCNC(=N)N)C(=O)N[C@@H](CCCNC(=N)N)C(=O)N[C@H](C(=O)N[C@@H](Cc1c[nH]cn1)C(=O)N[C@@H](CCCCN)C(=O)N[C@@H](CC(N)=O)C(=O)N[C@@H](CC(C)C)C(=O)N[C@H](C(=O)N1CCC[C@H]1C(=O)N[C@@H](CCC(N)=O)C(=O)NCC(=O)N[C@H](C(=O)N[C@H](C(=O)N[C@@H](CCCCN)C(=O)N[C@@H](CC(C)C)C(=O)N[C@@H](CC(=O)O)C(=O)N[C@@H](Cc1c[nH]cn1)C(=O)N1CCC[C@H]1C(=O)N[C@@H](CCCNC(=N)N)C(=O)O)C(C)C)[C@@H](C)CC)[C@@H](C)CC)C(C)C [st-wt-FP] (Stearoyl-KLRRVHKNLIPQGIVKLDHPR-OH)
phosphorylated EGFR, ERK and Akt proteins [1]: marked inhibition
EGFR expression (EGFR): marked inhibition
growth inhibition and apoptosis [2]: significant growth inhibition and apoptosis
effect on growth of NSCLC A549 cells (NSCLC A549 cells): significant inhibitory effect
effect on activities of oncogenic PTKs (EGFR, PDGFR, c-Kit, c-Abl, Erk) [3]: inhibitory effects
effect on tumor cell growth in combination with Gefitinib [4]: more than additive inhibitory effect
induction of apoptosis in combination with Gefitinib [4]: synergistic induction of apoptosis
sensitivity of cells to Gleevec when co-treated [5]: enhanced sensitivity
induction of apoptosis (SCLC H128 and H146 cells): enhanced induction of apoptosis
tumor cell growth (SCLC H128 and H146 cells): marked inhibition
c-Abl activity (c-Abl in A549 cells): marked inhibition
activities of c-abl and c-kit (phosphorylated proteins) (c-abl and c-kit): inhibitory effects; also recorded: significantly inhibited
growth inhibition in combination with gleevec [6]: enhanced growth inhibition
Activity of c-Abl protein (c-Abl in H1299 cells): inhibited
effect on growth of NSCLC H1299 cells (NSCLC H1299 cells): significant inhibitory effect
